These are yes or no findings as the source states them, for the method shown.
Molecular target: human OGT 4A mutant (W208A/L209A/I211A/H212A) (human) (UniProt O15294)
Experiment: SEC + cryo-EM structure; OGT 4A mutant on size exclusion chromatography and in cryo-EM analysis (2D classification); both purified

B1: human OGT 4A mutant (W208A/L209A/I211A/H212A) (enzyme, UniProt O15294 1-1046)
chain: MASSVGNVADSTEPTKRMLSFQGLAELAHREYQAGDFEAAERHCMQLWRQEPDNTGVLLLLSSIHFQCRRLDRSAHFSTLAIKQNPLLAEAYSNLGNVYKERGQLQEAIEHYRHALRLKPDFIDGYINLAAALVAAGDMEGAVQAYVSALQYNPDLYCVRSDLGNLLKALGRLEEAKACYLKAIETQPNFAVAWSNLGCVFNAQGEIAAAAAHFEKAVTLDPNFLDAYINLGNVLKEARIFDRAVAAYLRALSLSPNHAVVHGNLACVYYEQGLIDLAIDTYRRAIELQPHFPDAYCNLANALKEKGSVAEAEDCYNTALRLCPTHADSLNNLANIKREQGNIEEAVRLYRKALEVFPEFAAAHSNLASVLQQQGKLQEALMHYKEAIRISPTFADAYSNMGNTLKEMQDVQGALQCYTRAIQINPAFADAHSNLASIHKDSGNIPEAIASYRTALKLKPDFPDAYCNLAHCLQIVCDWTDYDERMKKLVSIVADQLEKNRLPSVHPHHSMLYPLSHGFRKAIAERHGNLCLDKINVLHKPPYEHPKDLKLSDGRLRVGYVSSDFGNHPTSHLMQSIPGMHNPDKFEVFCYALSPDDGTNFRVKVMAEANHFIDLSQIPCNGKAADRIHQDGIHILVNMNGYTKGARNELFALRPAPIQAMWLGYPGTSGALFMDYIITDQETSPAEVAEQYSEKLAYMPHTFFIGDHANMFPHLKKKAVIDFKSNGHIYDNRIVLNGIDLKAFLDSLPDVKIVKMKCPDGGDNADSSNTALNMPVIPMNTIAEAVIEMINRGQIQITINGFSISNGLATTQINNKAATGEEVPRTIIVTTRSQYGLPEDAIVYCNFNQLYKIDPSTLQMWANILKRVPNSVLWLLRFPAVGEPNIQQYAQNMGLPQNRIIFSPVAPKEEHVRRGQLADVCLDTPLCNGHTTGMDVLWAGTPMVTMPGETLASRVAASQLTCLGCLELIAKNRQEYEDIAVKLGTDLEYLKKVRGKVWKQRISSPLFNTKQYTMELERLYLQMWEHYAAGNKPDHMIKPVEVTESA
binding: no binding
